Data taken from patent publication US20170044236A1.
No constants are given. Whether binding was seen depends on the method and setting. Some results given as binding are weak or reduced against the parent protein; the word gives no strength. Where a sequence is shown, tags or fusion partners need not be part of it.

The chains behind the UniProt entries cited, without tags or fusion partners. Where a name states a change or a piece, a line headed by the entry shows the natural chain unless it says otherwise.
UniProt P06756: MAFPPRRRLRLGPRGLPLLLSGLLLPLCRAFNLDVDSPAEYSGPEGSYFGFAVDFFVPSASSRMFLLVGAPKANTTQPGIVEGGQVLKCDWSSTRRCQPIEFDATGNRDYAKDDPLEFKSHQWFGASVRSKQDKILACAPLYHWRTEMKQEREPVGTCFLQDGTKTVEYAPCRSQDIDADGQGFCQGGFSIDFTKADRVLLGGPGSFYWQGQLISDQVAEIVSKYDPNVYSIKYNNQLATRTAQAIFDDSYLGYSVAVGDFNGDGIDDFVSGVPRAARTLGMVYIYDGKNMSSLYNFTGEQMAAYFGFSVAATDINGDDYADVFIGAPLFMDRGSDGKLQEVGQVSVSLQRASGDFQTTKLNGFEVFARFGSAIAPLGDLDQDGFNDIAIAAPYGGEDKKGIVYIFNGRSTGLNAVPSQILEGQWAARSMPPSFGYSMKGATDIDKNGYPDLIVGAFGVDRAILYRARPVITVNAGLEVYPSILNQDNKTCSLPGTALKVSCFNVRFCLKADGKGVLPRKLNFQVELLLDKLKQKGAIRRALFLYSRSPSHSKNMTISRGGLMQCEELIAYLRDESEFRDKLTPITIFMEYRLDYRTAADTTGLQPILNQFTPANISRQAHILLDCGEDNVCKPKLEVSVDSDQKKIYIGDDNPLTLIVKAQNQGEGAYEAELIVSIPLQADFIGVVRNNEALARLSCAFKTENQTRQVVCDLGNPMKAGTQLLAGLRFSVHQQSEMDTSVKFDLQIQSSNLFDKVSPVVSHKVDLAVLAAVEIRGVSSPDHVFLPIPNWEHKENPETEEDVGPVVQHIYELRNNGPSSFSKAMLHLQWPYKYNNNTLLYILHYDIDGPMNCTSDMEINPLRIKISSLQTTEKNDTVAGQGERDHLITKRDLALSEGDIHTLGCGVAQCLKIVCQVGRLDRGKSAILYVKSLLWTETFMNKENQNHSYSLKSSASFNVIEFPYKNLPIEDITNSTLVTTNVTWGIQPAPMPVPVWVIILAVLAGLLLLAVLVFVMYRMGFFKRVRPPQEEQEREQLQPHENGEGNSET

Molecular target: wild-type integrin αVβ3 on cells (K562-αVβ3, M21, HEK293T) (human) (UniProt P06756)
Experiment: flow cytometry on K562-αVβ3, Fc fusion in culture supernatant, anti-Fc detection, Ca2+/Mg2+

binding: binds
Binder: GCPRPRGDNWPLTCSQDSDCLAGCVCGPNGFCG (Fc fusion, not shown: a dimerising Fc or GST; small tags and cut ends, cystine-knot disulfide bonds (pairing not given)) [knottin 2.5F (P/W)-Fc]
